Test results taken from PubChem BioAssay AID2551 (National Center for Advancing Translational Sciences (NCATS), 2010).
Screen size: about 310,000 compounds; about 17,000 (5.5%) were called active. Inconclusive means that the source gave no clear call. Such entries were picked first, then a sample of the others. The call rests on the fitted dose curve; in most records, active means well fitted inhibition curve with a large enough effect; inconclusive means small, poorly fitted or top-dose-only effect, or effect the other way; inactive means no such curve, though single readings can be large or run the other way. A potency beside an inconclusive call is a rough fit, not a confirmed value.

Chains of the proteins cited; added tags and fusions are not shown. Lines headed by an entry give the natural chain unless they say otherwise; changes in a name come on top.
UniProt P51450: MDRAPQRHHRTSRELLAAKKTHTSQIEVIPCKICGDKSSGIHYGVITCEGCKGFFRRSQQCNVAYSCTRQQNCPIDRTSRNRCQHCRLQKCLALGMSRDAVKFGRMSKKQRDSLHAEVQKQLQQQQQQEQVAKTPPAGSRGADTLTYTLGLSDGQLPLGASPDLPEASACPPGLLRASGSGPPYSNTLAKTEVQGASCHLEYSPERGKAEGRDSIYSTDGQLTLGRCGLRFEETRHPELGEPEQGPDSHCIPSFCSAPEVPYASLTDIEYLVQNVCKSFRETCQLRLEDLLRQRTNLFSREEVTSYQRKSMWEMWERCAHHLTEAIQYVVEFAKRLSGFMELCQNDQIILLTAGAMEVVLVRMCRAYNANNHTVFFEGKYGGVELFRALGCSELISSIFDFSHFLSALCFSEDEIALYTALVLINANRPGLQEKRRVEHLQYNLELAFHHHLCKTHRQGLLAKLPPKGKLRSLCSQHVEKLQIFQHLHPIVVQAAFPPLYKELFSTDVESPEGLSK

What follows are molecules tested against Nuclear receptor ROR-gamma (Mus musculus) (UniProt P51450) (assay: qHTS for inhibitors of ROR gamma transcriptional activity). Conditions: Drosophila S2 Gal4-RORgamma UAS-luciferase reporter, 20 h; activity change, negative = inhibition: at 53.6 µM (top of the series).
Procedure, shortened: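 In this cell-based reporter format, copper sulfate (700 uM final) drives Gal4–ROR gamma fusion expression from a metallothionein promoter in Drosophila Schneider cells; compounds preincubated 1 hr, reporter read after 20 hr at ambient temperature.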
Further: nearly all actives have a fitted effect of over 60% in size.
On the % scale 0 is the no-effect control and ±100 the full control effect; potency means the concentration at half of the fitted maximal effect.

Potency, active:
COc1ccc(C)cc1NC(=S)NC(C)c1ccc(OC)c(OC)c1 (stereo unspecified) 2.82 µM
Cc1ccc(-n2c([C@@H]3C[C@H]3c3ccccc3)n[nH]c2=S)cc1 2.82 µM
COc1ccc(-c2nn(-c3ccccc3)cc2C(=O)Nc2nccs2)cc1 7.08 µM
CC1S/C(=N/N=C2CCCCC2)NC1=O (stereo unspecified) 10 µM
COc1ccc(C(=O)/C=C/Nc2cccc(O)c2)cc1 10 µM
CC(C)(C)c1cc(C(c2cccnc2)N2CCN(CCO)CC2)cc(C(C)(C)C)c1O (stereo unspecified) 12.6 µM
COc1ccc(/C=C/C(=O)NC(=S)Nc2ccccc2C(=O)NC2CCCCC2)cc1 14.1 µM
O=c1c2ccccc2[nH]c(=S)n1CCN1CCN(Cc2ccccc2)CC1 35.5 µM
Cc1ccc(/C=N/NC(=O)C(C)Oc2cccc3ccccc23)o1 (stereo unspecified) 15.8 µM
Cc1ccc(C(=O)NNC(=O)CCCN2C(=O)/C(=C/c3ccccc3Cl)SC2=S)cc1 2.82 µM
COc1ccc(/C=N\NC(=O)c2ccc([N+](=O)[O-])cc2)cc1COc1c(F)c(F)cc(F)c1F 3.55 µM

Potency, inactive:
COc1cccc(NC(=O)c2ccc3c(c2)CCCC3)c1
NC(=O)N/N=C/c1ccc(OCc2cccc(Cl)c2)cc1
CC(C)(C)CC(=O)Nc1nnc(SCC(=O)N2CCCCC2)s1
CCOC(=O)C1CCN(C(=O)c2cccc(N3C(=O)NC4CC3(C)Oc3ccc(C)cc34)c2)CC1 (stereo unspecified)
CCOC(=O)CN/C=C(\C#N)c1ccc(F)cc1
CC(C)[C@H]1CN=C2N(C[C@H](C)NC(=O)CCC3CCCCC3)[C@H](Cc3ccc(O)cc3)CN21
CC(OC(=O)c1ccc(NS(=O)(=O)c2ccc3[nH]c(=O)[nH]c3c2)cc1)C(=O)Nc1ccc(Cl)cc1 (stereo unspecified)
CCCCCCCCCCCCOCCCN
NS(=O)(=O)c1ccc(CNC(=O)c2ccc(Br)o2)cc1

Potency, inconclusive:
CCOCC(=O)Nc1nc2ccccc2s1 35.5 µM [inhibitor, single point]
CC1(C)CC2CC(C)(CN2S(=O)(=O)c2ccc(C(=O)Nc3ccc(Cl)c(S(=O)(=O)N4CCOCC4)c3)cc2)C1 (stereo unspecified) 12.6 µM [activator, partial curve, poor fit]
CC(C)(C)c1cc2ncnc(N3CCCCC3)c2s1 2.51 µM [inhibitor, partial curve, poor fit]
COc1ccc2c(c1)c(C(=O)N/N=C/c1ccc(O)c(O)c1)c(C)n2C 35.5 µM [inhibitor, single point]
O=C(NCc1cccc2ccccc12)[C@H]1C[C@@H]1[C@H](NP(=O)(c1ccccc1)c1ccccc1)c1ccccc1 10 µM [activator, partial curve]
CCCCc1c(C)nc2ccc(Br)cc2c1SCCC#N 17.8 µM [activator, single point]
CCOC(=O)c1c(C)[nH]c(C(=O)COC(=O)CNC(=O)c2ccc(Br)cc2)c1C 12.6 µM [activator, single point]
CCOC(=O)c1ccc(NC(=O)CSCCC(=O)O)cc1 20 µM [inhibitor, single point]
O=C(Nc1ccc(-n2nncc2-c2ccco2)cc1)c1ccc(F)cc1 14.1 µM [activator, partial curve]
O=C(CN1CCC(C(=O)c2ccc(F)cc2)CC1)NCc1ccccc1F 10 µM [activator, partial curve]
O=S(=O)(c1ccccc1)N1CCN(c2cc(-c3ccccc3)nc3ncnn23)CC1 35.5 µM [inhibitor, single point]
Cc1ccc(-n2ncc3c2CCCC3NC(=O)CCC2=NNC(=O)CC2)cc1C (stereo unspecified) 15.8 µM [activator, single point]
CC(=O)Nc1ccc(S(=O)(=O)Nc2nc3ccccc3nc2Nc2ccc3ccccc3c2)cc1 11.2 µM [activator, partial curve]
COc1cccc(-c2n[nH]c3c2CCC3)c1 31.6 µM [inhibitor, single point]
O=C1c2ccccc2-c2onc3ccc(N4CCCC4)c1c23 11.2 µM [inhibitor, partial curve, poor fit]
CCCCSc1nc2c(=O)[nH][nH]c(=O)c2n1Cc1ccccc1 12.6 µM [activator, single point]
COc1ccc(NC(=O)Cn2nnc(C(=O)NCc3ccccc3OC)c2N)cc1Cl 22.4 µM [inhibitor, single point]
S=C(NCc1ccccc1)NCc1ccc(Cl)cc1 3.98 µM [inhibitor, single point]
COc1cccc(NC(=O)c2ccc3c(c2)OCCO3)c1 31.6 µM [inhibitor, single point]
COCC(=O)N=Nc1c(O)[nH]c2ccccc12 28.2 µM [activator, single point]
CCOC(=O)c1c(NC(=O)C[n+]2ccc(Cc3ccccc3)cc2)sc(C)c1C 15.8 µM [inhibitor, single point]
Cc1cc(C(F)(F)F)nc(NCc2ccc(F)cc2)n1 11.2 µM [activator, partial curve]
COc1ccc(Cl)cc1NC(=O)CN1CCC(n2nnc3ccccc32)CC1 0.158 µM [activator, full curve, poor fit]
FC(F)(F)c1ccccc1-c1ccc2ncnc(NCc3cccs3)c2c1 15.8 µM [activator, single point]
COc1ccc(OC)c(Nc2nc(-c3ccc(O)c(O)c3)cs2)c1 11.2 µM [inhibitor, partial curve]

Activity change, negative = inhibition, inactive:
C=CC1C(N2CCOCC2)C(C)(C)S1(=O)=O (stereo unspecified) -15.9% [at 10 µM]
